Measurements: the RNAGym collection of RNA variant scans (doi:10.1126/science.aae0568)
Variants at the floor of the assay are shown more often than the library holds them.

B1: tRNA (parent)
chain: GUUCCGUUGGCGUAAUGGUAACGCGUCUCCCUCCUAAGGAGAAGACUGCGGGUUCGAGUCCCGUACGGAACG

Variants of: B1
Test: yeast fitness relative to wild type (ratio to wild type); higher = fitter; tRNA-Arg(CCU), competitive growth, 37 C, YPD
In short: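 Variants of the tRNA-Arg(CCU) gene, chemically synthesised with a 3% per-site mutation rate at 69 sites, were placed at the native genomic locus in Saccharomyces cerevisiae. The pooled strains were competed in YPD at 37°C for 24 hours in six parallel replicates. Gene amplicons from the start population and from each end population were read by 100-nucleotide paired-end sequencing. Darwinian fitness relative to wild type came from changes in genotype frequencies; genotypes needed ≥ 100 starting reads, and estimates < 0.5 were set to 0.5.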

Variant | yeast fitness
U16G C60U C61G G67A | ≤ 0.5
U16G G23A A40U U64C | ≤ 0.5
U16G G25C C33A | ≤ 0.5
U16G G56C G67A | ≤ 0.5
U16G U28C | 0.862
G17A A20C C24U | 0.562
G17A A20G U53A | ≤ 0.5
G17A A37C A69C | 0.648
G17A C22A U47C U54C C55G C61A | ≤ 0.5
G17A C22A U64A | ≤ 0.5
G17A C22G C29U G51C C55G | ≤ 0.5
G17A C22G C31G C33G A69C | ≤ 0.5
G17A C22U C27A C30G C49A | ≤ 0.5
G17A C22U U32A C34U A37G A40U | ≤ 0.5
G17A C24A U28C U53A | ≤ 0.5
G17A C24G C27G A69U | ≤ 0.5
G17A C24G C27G G52A G67A | ≤ 0.5
G17A C24G U28A C30U | ≤ 0.5
G17A C30U C34A A40G C66U | ≤ 0.5
G17A C31G | 0.85
G17A C31G C60U G68A | ≤ 0.5
G17A C31U C49G C61A | ≤ 0.5
G17A C31U G48C C55G A69U | ≤ 0.5
G17A C31U U54G | 0.639

Variant | yeast fitness
G17A C33G C49A C62G | ≤ 0.5
G17A C34A A40G | ≤ 0.5
G17A C46G U54C | 0.562
G17A C61U C66U | 0.599
G17A G18A | 0.65
G17A G38C G48C U53A C61U | ≤ 0.5
G17A G39A C62U | ≤ 0.5
G17A U19A G23A C31U C34A | ≤ 0.5
G17A U19C A20G C49G C61A | ≤ 0.5
G17A U19C C34A A40G | ≤ 0.5
G17A U32A C62U | ≤ 0.5
G17A U47C C66U A69U | ≤ 0.5
G17C | 0.7
G17C A20G A57G C62U | ≤ 0.5
G17C A20U G52C | ≤ 0.5
G17C A21G C30A C34G A45G | ≤ 0.5
G17C A21G C61U C62U | ≤ 0.5
G17C A42U G50A | ≤ 0.5
G17C A43G C46A U47C G52C | ≤ 0.5
G17C A57U G67C | ≤ 0.5
G17C C22G | 0.619
G17C C24A A36U G41C | ≤ 0.5
G17C C24G G63C | ≤ 0.5
G17C C24U C49U U59A | 0.533

Variant | yeast fitness
G17C C27U C34U A42U A69U | ≤ 0.5
G17C C29G A37C U64C | 0.771
G17C C29U A57C | ≤ 0.5
G17C C30U A36G A70G | ≤ 0.5
G17C C31G A45C U54C C55A | ≤ 0.5
G17C C55U G68C | ≤ 0.5
G17C C60G C62G G68C | ≤ 0.5
G17C C62U A65C | 0.593
G17C G23C C33G G50A | ≤ 0.5
G17C G23U U28A C31G A65G | ≤ 0.5
G17C G38A G51A C62G G63C C66G A69U | ≤ 0.5
G17C G44A A45C | ≤ 0.5
G17C U26G G39C A40U A70U | ≤ 0.5
G17C U32C A42U C61U | ≤ 0.5
G17C U35A G39A C55G C60U G67C | ≤ 0.5
G17C U35C C60U | ≤ 0.5
G17C U35C G44A G48C C55G A69U | ≤ 0.5
G18A A21U U26C | ≤ 0.5
G18A A36U C61A | ≤ 0.5
G18A A42G | 0.692
G18A A45C C55U C61G | ≤ 0.5
G18A A57U G58C | ≤ 0.5
G18A A65C | 0.759
G18A C22A A37C G41C C55G | ≤ 0.5

Variant | yeast fitness
G18A C22U C30U C33U A45C | ≤ 0.5
G18A C24G G38C C66A | ≤ 0.5
G18A C27U C31A | ≤ 0.5
G18A C27U C31A A69G | ≤ 0.5
G18A C27U U53C | ≤ 0.5
G18A C29U G52C G63A | ≤ 0.5
G18A C30U A40G G68C | ≤ 0.5
G18A C30U C62A | ≤ 0.5
G18A C31A G44A | 0.534
G18A C33U G44A C62G | ≤ 0.5
G18A C34U C60U | ≤ 0.5
G18A C34U U35C C61U A69G A70C | ≤ 0.5
G18A C46U C60U | ≤ 0.5
G18A C46U G50U C60G A70G | ≤ 0.5
G18A G23C C30G A36U | ≤ 0.5
G18A G23C C61A | ≤ 0.5
G18A G25C C30G G41U C55G | ≤ 0.5
G18A G25C G51A A65C | ≤ 0.5
G18A G41C A42G U54A | ≤ 0.5
G18A G44C A65C | ≤ 0.5
G18A G68C | 0.662
G18A U19A G23C | ≤ 0.5
G18A U26A A40U A57C | ≤ 0.5
G18A U28A G68A | ≤ 0.5

Variant | yeast fitness
G18A U28A U47A A57G | ≤ 0.5
G18A U35A A40G A69C | ≤ 0.5
G18A U35A C46G C49U | ≤ 0.5
G18C A20C C22U C31U C61G C62G | ≤ 0.5
G18C A20U U53C A69U | ≤ 0.5
G18C A21U U26C G51C | 0.739
G18C A42C A43C C66G | ≤ 0.5
G18C A45U G52A A65U | ≤ 0.5
G18C A57G A65U | ≤ 0.5
G18C C22G G56A A65U | ≤ 0.5
G18C C22G G56A C60A | ≤ 0.5
G18C C24U A40U | ≤ 0.5
G18C C24U C34U A40G C55G A65G | ≤ 0.5
G18C C27U C55G G68C | ≤ 0.5
G18C C27U U53G C66U | ≤ 0.5
G18C C30U A45G | ≤ 0.5
G18C C30U U32A C34G A45C U47G A57G | 0.688
G18C C31A C34A G44A G52C C61G | ≤ 0.5
G18C C31A C61G | ≤ 0.5
G18C C31U C33G G50C C62U | ≤ 0.5
G18C C31U G52A | ≤ 0.5
G18C C34U U47A | ≤ 0.5
G18C C49G C61U | ≤ 0.5
G18C C61A C62U A65U A69C | ≤ 0.5

Variant | yeast fitness
G18C G23A G25C A37G A43C U54C C55G G68A | ≤ 0.5
G18C G25C U28G A42G U47C C49U A57U | ≤ 0.5
G18C G39C C61U | ≤ 0.5
G18C G41C A43C | ≤ 0.5
G18C U19A A36U C66U | ≤ 0.5
G18C U19G A45C G67A | ≤ 0.5
G18C U19G C27U A43U A65U | ≤ 0.5
G18C U26C C34U | ≤ 0.5
G18C U35A C61U | ≤ 0.5
G18C U47C | 0.658
G18U A21U G52A | ≤ 0.5
G18U G39A C62A A69U | ≤ 0.5
U19A C22G A45U C49U U64A | ≤ 0.5
U19A C22G C34U A42G A43G G51A A70U | ≤ 0.5
U19A C24U C29A U54A | ≤ 0.5
U19A C27G C31U | ≤ 0.5
U19A C27U A65U | 0.717
U19A C29G G48A C61A | 0.683
U19A C30G A36G C61G | ≤ 0.5
U19A C30G A43C A69C | ≤ 0.5
U19A C30U U47A G67C | ≤ 0.5
U19A C31A G41C A45G G50C G67A A69G | ≤ 0.5
U19A C31U | 0.954
U19A C33U C61U | ≤ 0.5

Variant | yeast fitness
U19A C34A U54A C62U | ≤ 0.5
U19A C46U A57C A70C | ≤ 0.5
U19A G25A A37U C55U | ≤ 0.5
U19A G44C G68C | ≤ 0.5
U19A G56A | 1
U19A U26A C29A C46G U54A | 0.603
U19C A20C A45C G48C A69U | ≤ 0.5
U19C A20C C24A C61U G63C | ≤ 0.5
U19C A20C C31G A69C | ≤ 0.5
U19C A20G A40G | ≤ 0.5
U19C A37C A40G G52C U59C A65U | ≤ 0.5
U19C C22A U32A A37U A45C G50A U53C | ≤ 0.5
U19C C24U U32C U35C A37C A45G A57C | ≤ 0.5
U19C C27A C31G A43G | ≤ 0.5
U19C C31A G50C A70U | ≤ 0.5
U19C C31U C33G G41A C49G U54C G63A | ≤ 0.5
U19C C55A C66A | ≤ 0.5
U19C C60A | 0.547
U19C G25A U28A A42G G56C | ≤ 0.5
U19C G48C C66U | 0.712
U19C U28C C29G A57U | ≤ 0.5
U19C U32C | 0.926
U19C U32G C33G | ≤ 0.5
